Here are results for 37 targets from the supplement of paper PMC6411743.

Protein sequences, listed by entry. Tags and fused reporters are not part of them. Lines headed by an entry give the natural chain unless they say otherwise; changes in a name come on top.
UniProt Q9BXJ8: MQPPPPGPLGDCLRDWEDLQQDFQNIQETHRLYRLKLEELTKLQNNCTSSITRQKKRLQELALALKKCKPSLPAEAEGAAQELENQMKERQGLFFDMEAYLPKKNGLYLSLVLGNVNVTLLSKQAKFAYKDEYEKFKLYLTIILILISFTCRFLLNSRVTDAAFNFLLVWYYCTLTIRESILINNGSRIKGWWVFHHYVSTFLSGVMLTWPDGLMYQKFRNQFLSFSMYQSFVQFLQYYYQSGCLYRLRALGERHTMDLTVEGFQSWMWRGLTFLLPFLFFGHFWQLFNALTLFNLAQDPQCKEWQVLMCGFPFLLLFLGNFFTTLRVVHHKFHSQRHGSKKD
UniProt Q969K3: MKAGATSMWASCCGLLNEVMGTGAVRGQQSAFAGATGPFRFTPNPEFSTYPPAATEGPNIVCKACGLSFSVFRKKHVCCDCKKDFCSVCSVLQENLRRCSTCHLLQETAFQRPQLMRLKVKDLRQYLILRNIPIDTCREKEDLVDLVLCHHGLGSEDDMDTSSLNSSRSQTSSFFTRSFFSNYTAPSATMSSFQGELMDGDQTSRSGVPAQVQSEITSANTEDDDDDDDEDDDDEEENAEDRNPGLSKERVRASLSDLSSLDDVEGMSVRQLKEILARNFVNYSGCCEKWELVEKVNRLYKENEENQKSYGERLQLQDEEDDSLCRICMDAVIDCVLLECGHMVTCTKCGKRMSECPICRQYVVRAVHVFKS
UniProt Q9Y314: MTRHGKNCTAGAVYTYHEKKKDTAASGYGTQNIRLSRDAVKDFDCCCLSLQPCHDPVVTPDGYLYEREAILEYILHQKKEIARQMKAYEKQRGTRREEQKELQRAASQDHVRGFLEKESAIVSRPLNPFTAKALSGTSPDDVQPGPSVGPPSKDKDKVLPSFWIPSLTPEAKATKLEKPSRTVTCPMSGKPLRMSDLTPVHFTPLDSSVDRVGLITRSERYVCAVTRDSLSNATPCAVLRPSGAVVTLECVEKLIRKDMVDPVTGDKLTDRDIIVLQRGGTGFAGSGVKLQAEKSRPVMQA
UniProt Q6DD87: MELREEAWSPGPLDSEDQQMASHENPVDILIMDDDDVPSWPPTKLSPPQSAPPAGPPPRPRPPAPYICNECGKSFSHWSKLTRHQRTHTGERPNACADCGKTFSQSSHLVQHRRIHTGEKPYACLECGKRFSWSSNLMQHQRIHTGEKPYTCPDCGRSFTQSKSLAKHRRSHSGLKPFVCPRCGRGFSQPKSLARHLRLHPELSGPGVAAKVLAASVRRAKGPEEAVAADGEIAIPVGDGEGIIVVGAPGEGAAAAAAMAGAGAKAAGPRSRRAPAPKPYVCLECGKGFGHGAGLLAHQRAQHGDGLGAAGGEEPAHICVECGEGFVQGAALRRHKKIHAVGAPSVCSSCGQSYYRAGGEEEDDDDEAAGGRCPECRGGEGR
UniProt Q9Y371: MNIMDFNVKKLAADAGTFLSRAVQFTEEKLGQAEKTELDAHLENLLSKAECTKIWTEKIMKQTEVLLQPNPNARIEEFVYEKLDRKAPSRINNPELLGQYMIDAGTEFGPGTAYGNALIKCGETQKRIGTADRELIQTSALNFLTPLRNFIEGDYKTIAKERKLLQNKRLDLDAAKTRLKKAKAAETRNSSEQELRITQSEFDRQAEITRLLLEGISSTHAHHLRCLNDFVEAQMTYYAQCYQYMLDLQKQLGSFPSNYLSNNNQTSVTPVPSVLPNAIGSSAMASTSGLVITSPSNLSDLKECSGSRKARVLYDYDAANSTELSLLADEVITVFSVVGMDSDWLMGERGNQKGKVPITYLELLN
UniProt Q3LXA3: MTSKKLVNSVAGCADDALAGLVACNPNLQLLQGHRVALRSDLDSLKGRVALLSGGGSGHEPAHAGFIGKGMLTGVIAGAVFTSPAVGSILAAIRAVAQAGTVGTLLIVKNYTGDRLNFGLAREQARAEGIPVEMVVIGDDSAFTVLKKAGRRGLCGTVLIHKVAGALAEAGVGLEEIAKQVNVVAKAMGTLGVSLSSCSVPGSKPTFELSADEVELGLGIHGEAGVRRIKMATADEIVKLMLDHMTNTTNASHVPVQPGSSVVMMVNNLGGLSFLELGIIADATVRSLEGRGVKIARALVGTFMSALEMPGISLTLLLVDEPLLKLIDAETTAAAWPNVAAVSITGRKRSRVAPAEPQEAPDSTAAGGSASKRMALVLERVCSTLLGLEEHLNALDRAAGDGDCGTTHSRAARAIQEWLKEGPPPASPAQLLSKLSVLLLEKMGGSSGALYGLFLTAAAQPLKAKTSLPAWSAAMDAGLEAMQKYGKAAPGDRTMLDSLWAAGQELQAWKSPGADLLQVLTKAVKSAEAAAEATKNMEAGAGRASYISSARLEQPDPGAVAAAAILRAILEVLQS
UniProt Q8WYA6: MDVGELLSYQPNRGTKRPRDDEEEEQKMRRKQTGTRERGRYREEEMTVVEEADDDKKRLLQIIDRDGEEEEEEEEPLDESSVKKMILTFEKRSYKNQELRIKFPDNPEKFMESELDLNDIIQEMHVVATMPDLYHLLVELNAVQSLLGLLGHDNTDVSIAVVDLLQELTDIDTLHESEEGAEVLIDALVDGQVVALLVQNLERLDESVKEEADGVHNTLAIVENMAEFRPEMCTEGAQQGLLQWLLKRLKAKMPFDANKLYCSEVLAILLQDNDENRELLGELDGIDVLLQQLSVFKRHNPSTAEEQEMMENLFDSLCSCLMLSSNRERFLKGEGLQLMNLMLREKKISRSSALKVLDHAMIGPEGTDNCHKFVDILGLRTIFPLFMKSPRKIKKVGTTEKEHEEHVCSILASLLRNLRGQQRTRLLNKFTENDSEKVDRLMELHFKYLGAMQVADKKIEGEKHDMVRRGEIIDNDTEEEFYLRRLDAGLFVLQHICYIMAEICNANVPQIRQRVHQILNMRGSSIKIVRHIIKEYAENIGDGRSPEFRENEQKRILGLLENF
UniProt P26599: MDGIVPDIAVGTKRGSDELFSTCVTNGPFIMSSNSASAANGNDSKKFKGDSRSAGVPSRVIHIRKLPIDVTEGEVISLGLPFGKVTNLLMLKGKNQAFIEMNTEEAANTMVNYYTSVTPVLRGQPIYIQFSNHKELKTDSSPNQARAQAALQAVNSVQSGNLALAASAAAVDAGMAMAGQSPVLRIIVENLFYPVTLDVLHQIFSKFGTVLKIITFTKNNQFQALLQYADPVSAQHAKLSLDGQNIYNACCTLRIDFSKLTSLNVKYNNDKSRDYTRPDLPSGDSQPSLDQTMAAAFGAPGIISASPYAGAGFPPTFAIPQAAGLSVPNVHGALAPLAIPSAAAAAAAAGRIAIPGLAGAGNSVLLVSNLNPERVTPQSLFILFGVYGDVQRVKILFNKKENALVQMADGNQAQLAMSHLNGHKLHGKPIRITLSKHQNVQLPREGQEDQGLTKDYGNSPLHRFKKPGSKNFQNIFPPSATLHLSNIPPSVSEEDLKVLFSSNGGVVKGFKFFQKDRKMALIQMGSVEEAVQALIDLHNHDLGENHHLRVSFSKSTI
UniProt Q9NV06: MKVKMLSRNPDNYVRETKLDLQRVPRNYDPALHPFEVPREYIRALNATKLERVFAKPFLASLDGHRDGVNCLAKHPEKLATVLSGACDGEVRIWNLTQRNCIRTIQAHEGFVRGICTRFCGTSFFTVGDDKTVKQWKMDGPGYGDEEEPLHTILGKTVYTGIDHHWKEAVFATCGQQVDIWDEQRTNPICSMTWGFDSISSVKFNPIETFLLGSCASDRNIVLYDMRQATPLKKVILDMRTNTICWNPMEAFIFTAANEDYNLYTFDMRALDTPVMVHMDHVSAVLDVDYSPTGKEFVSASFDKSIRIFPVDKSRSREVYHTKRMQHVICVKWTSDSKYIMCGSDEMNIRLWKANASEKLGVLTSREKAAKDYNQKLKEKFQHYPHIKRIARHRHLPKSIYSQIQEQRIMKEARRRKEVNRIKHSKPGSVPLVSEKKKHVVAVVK
UniProt P49720: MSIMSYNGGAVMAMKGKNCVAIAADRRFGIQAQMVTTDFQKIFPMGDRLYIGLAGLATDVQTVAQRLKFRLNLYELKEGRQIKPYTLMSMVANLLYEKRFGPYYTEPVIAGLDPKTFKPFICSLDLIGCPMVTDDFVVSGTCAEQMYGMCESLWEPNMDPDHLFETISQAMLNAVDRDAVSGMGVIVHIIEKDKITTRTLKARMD
UniProt Q96AY4: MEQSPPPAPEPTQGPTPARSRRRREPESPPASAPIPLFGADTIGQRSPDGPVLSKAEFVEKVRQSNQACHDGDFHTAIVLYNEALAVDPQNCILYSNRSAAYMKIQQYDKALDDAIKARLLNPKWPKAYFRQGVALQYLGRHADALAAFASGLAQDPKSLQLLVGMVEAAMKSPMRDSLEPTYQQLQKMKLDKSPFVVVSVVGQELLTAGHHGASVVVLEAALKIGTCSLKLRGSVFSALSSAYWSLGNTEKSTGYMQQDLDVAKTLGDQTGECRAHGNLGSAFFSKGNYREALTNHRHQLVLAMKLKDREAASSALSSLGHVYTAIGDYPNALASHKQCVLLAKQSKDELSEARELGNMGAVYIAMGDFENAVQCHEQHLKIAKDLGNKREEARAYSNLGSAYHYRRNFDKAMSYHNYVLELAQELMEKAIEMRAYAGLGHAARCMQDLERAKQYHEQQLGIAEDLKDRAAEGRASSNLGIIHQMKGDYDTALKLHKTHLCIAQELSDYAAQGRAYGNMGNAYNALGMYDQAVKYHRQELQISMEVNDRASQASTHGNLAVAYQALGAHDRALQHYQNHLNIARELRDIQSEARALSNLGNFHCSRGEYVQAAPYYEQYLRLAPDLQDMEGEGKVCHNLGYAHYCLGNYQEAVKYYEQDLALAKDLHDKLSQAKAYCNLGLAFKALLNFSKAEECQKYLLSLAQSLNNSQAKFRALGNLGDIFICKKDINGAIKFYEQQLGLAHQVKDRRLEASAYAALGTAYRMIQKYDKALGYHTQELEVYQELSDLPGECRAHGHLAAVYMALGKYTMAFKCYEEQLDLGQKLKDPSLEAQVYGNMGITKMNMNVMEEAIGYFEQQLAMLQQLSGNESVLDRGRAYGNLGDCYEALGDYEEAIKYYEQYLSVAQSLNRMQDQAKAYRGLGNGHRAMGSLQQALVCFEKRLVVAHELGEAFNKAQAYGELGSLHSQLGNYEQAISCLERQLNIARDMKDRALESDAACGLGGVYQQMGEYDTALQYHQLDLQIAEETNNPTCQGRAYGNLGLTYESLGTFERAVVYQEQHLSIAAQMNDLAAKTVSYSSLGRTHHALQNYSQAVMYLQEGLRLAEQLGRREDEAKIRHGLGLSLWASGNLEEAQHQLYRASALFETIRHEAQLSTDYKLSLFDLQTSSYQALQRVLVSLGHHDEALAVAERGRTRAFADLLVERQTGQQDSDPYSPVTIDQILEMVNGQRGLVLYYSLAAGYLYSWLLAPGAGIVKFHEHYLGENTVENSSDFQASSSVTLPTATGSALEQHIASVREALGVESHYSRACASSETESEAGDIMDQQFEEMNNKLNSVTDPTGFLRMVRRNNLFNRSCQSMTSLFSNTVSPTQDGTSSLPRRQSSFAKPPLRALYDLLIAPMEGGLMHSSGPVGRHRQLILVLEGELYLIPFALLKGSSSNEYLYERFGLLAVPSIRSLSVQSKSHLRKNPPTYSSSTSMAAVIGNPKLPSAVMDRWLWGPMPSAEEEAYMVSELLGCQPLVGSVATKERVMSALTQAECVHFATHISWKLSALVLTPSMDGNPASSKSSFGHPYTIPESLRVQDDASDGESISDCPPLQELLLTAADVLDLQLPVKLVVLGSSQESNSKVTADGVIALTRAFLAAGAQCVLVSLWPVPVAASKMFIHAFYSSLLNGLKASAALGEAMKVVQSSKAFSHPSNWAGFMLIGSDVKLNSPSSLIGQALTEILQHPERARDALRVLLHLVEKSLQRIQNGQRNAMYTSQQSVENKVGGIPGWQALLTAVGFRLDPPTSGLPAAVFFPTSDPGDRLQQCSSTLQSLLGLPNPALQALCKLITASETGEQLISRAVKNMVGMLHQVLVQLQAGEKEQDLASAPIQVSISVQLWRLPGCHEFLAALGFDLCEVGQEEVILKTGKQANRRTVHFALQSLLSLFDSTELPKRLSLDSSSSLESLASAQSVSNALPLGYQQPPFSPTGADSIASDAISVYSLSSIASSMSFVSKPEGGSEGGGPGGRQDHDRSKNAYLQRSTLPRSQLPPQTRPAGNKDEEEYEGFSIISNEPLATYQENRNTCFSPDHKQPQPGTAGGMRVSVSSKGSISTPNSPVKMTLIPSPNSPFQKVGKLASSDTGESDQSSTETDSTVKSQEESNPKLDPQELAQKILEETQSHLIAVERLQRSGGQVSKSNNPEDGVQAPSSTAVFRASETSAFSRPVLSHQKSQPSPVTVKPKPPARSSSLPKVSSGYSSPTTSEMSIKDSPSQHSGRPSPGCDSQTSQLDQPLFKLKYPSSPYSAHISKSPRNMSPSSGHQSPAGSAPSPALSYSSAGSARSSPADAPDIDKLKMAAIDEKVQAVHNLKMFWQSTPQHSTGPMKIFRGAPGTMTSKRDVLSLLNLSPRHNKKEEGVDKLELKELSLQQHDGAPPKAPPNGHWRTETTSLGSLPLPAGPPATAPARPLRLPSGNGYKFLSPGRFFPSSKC

± gives the standard deviation of the averaged measurements. The entries are a selection whose mix differs from that of the whole data set. Most values lie at the level of the controls, where differences are scatter.

Compound in the assay: Nc1ncnc2c1ncn2[C@@H]1O[C@H](COP(=O)(O)OP(=O)(O)NP(=O)(O)O)[C@@H](O)[C@H]1O [adenylyl imidodiphosphate]
The assay can be described thus: NP40-soluble protein abundance relative to vehicle (solubility fold change) (ratio); higher = more soluble protein in presence of AMP-PNP. Particulars: concentration: 0.1mM. The essentials:
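Each value is a fold change relative to the detergent-processed vehicle, calculated per replicate from vsn-normalised intensities. Jurkat crude lysate received eight concentrations (0.1 to 10 mM) for 10 min at room temperature and 3 min at 37 °C, then was solubilised in 0.8% NP40 with benzonase (60 min, 4 °C). The ultracentrifuged supernatant was TMT-labelled and run by LC-MS/MS in three independent experiments.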
As for A0A087WUI1|Q9Y388 (UniProt Q9Y388), the NP40-soluble protein abundance came to 1.05 ± 0.033. For “A0A087WVA8|Q8IWB9 and related entries (UniProt Q8IWB9)” the value was 1.02 ± 0.041; for A0A087WVN1|Q5JPI9 (UniProt Q5JPI9), 1.006 ± 0.0084. For “A0A087WT44|P30519 and related entries (UniProt P30519)” the value was 1 ± 0.019; for A0A087WUT6|O60841 (UniProt O60841), 0.999 ± 0.036; for A0A087WT30|Q8N5I9 (UniProt Q8N5I9), 1.05 ± 0.033.

Take A0A024RAC6 (UniProt Q14241): the NP40-soluble protein abundance came out at 0.979 ± 0.021. With A0A087WU53|Q9H0U3 (UniProt Q9H0U3) the figure was 1.02 ± 0.054. For “A0A087WTT2|Q5JWB9 and related entries (UniProt Q96A57)” the value was 0.989 ± 0.03; for “A0A024R4K9|A0A087WZA9|A0A087X266|Q9BXJ8 and related entries (UniProt Q9BXJ8)”, 0.952 ± 0.0082; for A0A024QZP7|P06493 (UniProt P06493), 1.02 ± 0.017. A0A024R216|Q9Y3E1 (UniProt Q9Y3E1): the NP40-soluble protein abundance came to 0.935 ± 0.044. For “A0A087WTM5|H7BYJ1 and related entries (UniProt Q969K3)” the value was 0.974 ± 0.03. With A0A087WVZ0|Q9Y5U8 (UniProt Q9Y5U8) the figure was 1.019 ± 0.0083; with A0A087WV05|Q99417 (UniProt Q99417), 0.9979 ± 0.0074; with A0A075B6F9|Q9Y314 (UniProt Q9Y314), 0.983 ± 0.037.

Take A0A087WUU9|P47974 (UniProt P47974): the NP40-soluble protein abundance worked out at 1.007 ± 0.0073.

As to A0A087WUD1|Q6DD87 (UniProt Q6DD87), the NP40-soluble protein abundance stood at 1.001 ± 0.0051. With “A0A087WT12|A0A087X2I2|K7ERP4 and related entries (UniProt P36969)”, the NP40-soluble protein abundance was found to be 1.004 ± 0.0085. For “A0A087WW40|Q9Y371 and related entries (UniProt Q9Y371)” the value was 1 ± 0.022. Regarding “A0A087WV73|P46087 and related entries (UniProt P46087)”, the NP40-soluble protein abundance came to 1 ± 0.013. With “A0A024R4Q5|G5E9B5 and related entries (UniProt P0C1Z6)” the figure was 1.01 ± 0.04; with “A0A087WU62|A0A087X2D5|A0A0G2JMS5|Q9BRJ2 (UniProt Q9BRJ2)”, 1.02 ± 0.023; with A0A087WUL0|Q3LXA3 (UniProt Q3LXA3), 0.997 ± 0.027. For A0A024R644|O75503 (UniProt O75503) the value was 0.976 ± 0.049; for “A0A087WVS8|Q70IA6 and related entries (UniProt Q70IA6)”, 0.976 ± 0.02; for A0A087WUB9|Q8WYA6 (UniProt Q8WYA6), 1.02 ± 0.028.

Regarding “A0A087WUW5|A0A0U1RRM4|A6NLN1 and related entries (UniProt P26599)”, the NP40-soluble protein abundance is 1.01 ± 0.012. With A0A087WT20|Q9NV06 (UniProt Q9NV06) the figure was 1.044 ± 0.006; with A0A087WTX2|Q92504 (UniProt Q92504), 0.9886 ± 0.0052; with A0A075B746|P82921 (UniProt P82921), 1.001 ± 0.0087.

For “A0A087WUP3|F8WBY6 and related entries (UniProt Q8N3Z3)”, the NP40-soluble protein abundance turned out to be 1.002 ± 0.008.

For A0A024R4M0|P46781 (UniProt P46781), the NP40-soluble protein abundance is 1.1 ± 0.067. Regarding A0A087WVU5|O00512 (UniProt O00512), the NP40-soluble protein abundance was found to be 0.986 ± 0.011. For the target “A0A087WTU9|A0A087WZY3|Q8TCU4 and related entries (UniProt Q8TCU4)”, the NP40-soluble protein abundance turned out to be 1.02 ± 0.049. For A0A087WUL2|P49720 (UniProt P49720) the value was 1.04 ± 0.022.

As to A0A087WW06|Q96AY4 (UniProt Q96AY4), the NP40-soluble protein abundance is 1.01 ± 0.0045.
